Read-outs that look alike come from different tables or passages of the source. Where a SMILES comes first, the peptide text is derived from it.
Tested on: microbial cells over eukaryotic cells
Test: Selectivity index (ratio of the toxicity to the MIC)
[1] = range of selectivity indices, S. Enteritidis (second of three slash-separated values), N/O = no observed antimicrobial activity
[2] = range of selectivity indices, S. aureus (third of three slash-separated values), N/O = no observed antimicrobial activity
[3] = range of selectivity indices, E. coli (first of three slash-separated values), N/O = no observed antimicrobial activity

Row | SMILES | Selectivity Index S. Enteritidis [1] | Selectivity Index S. aureus [2] | other results
1 | CC[C@H](C)[C@H](NC(=O)CN)C(=O)N[C@@H](Cc1ccc(O)cc1)C(=O)N[C@H](C(=O)NCC(=O)N[C@@H](CCCNC(=N)N)C(=O)N[C@@H](CC(C)C)C(=O)N[C@@H](CC(C)C)C(=O)N1CCC[C@H]1C(=O)N[C@H](C(=O)N[C@@H](Cc1ccc(O)cc1)C(=O)N[C@H](C(=O)N1CCC[C@H]1C(=O)N[C@@H](CCC(N)=O)C(=O)N1CCC[C@H]1C(=O)N[C@@H](CCCNC(=N)N)C(=O)N1CCC[C@H]1C(=O)N1CCC[C@H]1C(=O)N[C@@H](Cc1c[nH]cn1)C(=O)N1CCC[C@H]1C(=O)N[C@@H](CCCNC(=N)N)C(=O)N[C@@H](CC(C)C)C(=O)N[C@@H](CCCNC(=N)N)C(=O)N[C@@H](CCCNC(=N)N)C(=O)O)[C@@H](C)CC)C(C)C)[C@@H](C)O [ApCe1] (H-GIYTGRLLPVYIPQPRPPHPRLRR-OH; N-terminus and C-terminus assumed) | N/O | – | –
2 | CC[C@H](C)[C@H](NC(=O)[C@@H](N)Cc1ccccc1)C(=O)N[C@@H](CCCCN)C(=O)N[C@H](C(=O)N[C@@H](CCC(N)=O)C(=O)N[C@H](C(=O)N[C@@H](CC(C)C)C(=O)N[C@@H](CCCCN)C(=O)N[C@@H](Cc1c[nH]cn1)C(=O)N[C@@H](CC(C)C)C(=O)N[C@H](C(=O)N[C@@H](C)C(=O)NCC(=O)N[C@H](C(=O)N[C@@H](CCCNC(=N)N)C(=O)N[C@H](C(=O)N[C@@H](C)C(=O)N[C@@H](CCCNC(=N)N)C(=O)NCC(=O)N[C@@H](CC(C)C)C(=O)N[C@@H](CC(=O)O)C(=O)N[C@@H](Cc1c[nH]c2ccccc12)C(=O)N[C@@H](CCCCN)C(=O)N[C@@H](Cc1c[nH]c2ccccc12)C(=O)N[C@@H](CCCNC(=N)N)C(=O)O)C(C)C)C(C)C)C(C)C)C(C)C)[C@@H](C)O [CaCa2] (H-FIKTQVLKHLVAGVRVARGLDWKWR-OH; N-terminus and C-terminus assumed) | – | – | Selectivity Index S. aureus: >16/>1- >2/N/O
3 | CC[C@H](C)[C@H](NC(=O)[C@H](CCCCN)NC(=O)[C@H](CS)NC(=O)[C@H](Cc1ccccc1)NC(=O)[C@H](CCCCN)NC(=O)[C@H](CCCNC(=N)N)NC(=O)[C@H](CO)NC(=O)[C@H](Cc1ccc(O)cc1)NC(=O)CNC(=O)[C@H](CS)NC(=O)[C@@H]1CCCN1C(=O)[C@H](C)NC(=O)[C@@H](NC(=O)[C@H](C)NC(=O)[C@H](Cc1ccccc1)NC(=O)[C@H](Cc1ccccc1)NC(=O)[C@H](Cc1ccccc1)NC(=O)[C@H](CCCNC(=N)N)NC(=O)[C@@H](N)CCCNC(=N)N)[C@@H](C)O)C(=O)N[C@H](C(=O)N[C@@H](CCCNC(=N)N)C(=O)N[C@@H](CCCNC(=N)N)C(=O)N[C@@H](CCCCN)C(=O)N[C@@H](CCCNC(=N)N)C(=O)O)[C@@H](C)O [CaCa4] (H-RRFFFATAPCGYSRKFCKITRRKR-OH; N-terminus and C-terminus assumed) | N/O | – | –
4 | CC[C@H](C)[C@H](NC(=O)[C@H](CCCCN)NC(=O)[C@H](CS)NC(=O)[C@H](CCCCN)NC(=O)[C@H](CC(C)C)NC(=O)[C@H](CC(N)=O)NC(=O)[C@H](CC(=O)O)NC(=O)[C@H](CC(C)C)NC(=O)[C@H](CC(C)C)NC(=O)[C@@H](NC(=O)[C@@H](NC(=O)[C@H](C)NC(=O)[C@@H](NC(=O)[C@H](CC(N)=O)NC(=O)[C@H](CCCCN)NC(=O)[C@H](C)NC(=O)[C@@H](NC(=O)[C@H](CC(N)=O)NC(=O)[C@H](CCCCN)NC(=O)[C@H](C)NC(=O)[C@@H](NC(=O)[C@H](CC(=O)O)NC(=O)[C@H](CCSC)NC(=O)[C@H](Cc1ccccc1)NC(=O)CN)[C@@H](C)O)C(C)C)C(C)C)C(C)C)[C@@H](C)O)C(=O)N[C@H](C(=O)N[C@@H](CCCCN)C(=O)N[C@@H](C)C(=O)N[C@@H](CS)C(=O)O)[C@@H](C)O [OdMa13] (H-GFMDTAKNVAKNVAVTLLDNLKCKITKAC-OH; N-terminus and C-terminus assumed) | N/O | N/O | –
5 | CC(C)C[C@H](NC(=O)CN)C(=O)N[C@@H](CC(C)C)C(=O)NCC(=O)N[C@@H](CCCCN)C(=O)N[C@H](C(=O)N[C@@H](CC(C)C)C(=O)NCC(=O)N[C@H](C(=O)NCC(=O)N[C@@H](CCCCN)C(=O)N[C@@H](CCCCN)C(=O)N[C@H](C(=O)N[C@@H](CC(C)C)C(=O)N[C@@H](CS)C(=O)NCC(=O)N[C@H](C(=O)N[C@H](C(=O)NCC(=O)N[C@@H](CCCNC(=N)N)C(=O)N[C@@H](CCC(=O)O)C(=O)N[C@@H](CCCNC(=N)N)C(=O)N[C@@H](CS)C(=O)N[C@@H](CCC(N)=O)C(=O)O)[C@@H](C)O)C(C)C)C(C)C)C(C)C)C(C)C [PeNi5] (H-GLLGKVLGVGKKVLCGVTGRERCQ-OH; N-terminus and C-terminus assumed) | N/O | > 2 | –
6 | CC[C@H](C)[C@H](NC(=O)[C@@H](N)C(C)C)C(=O)N1CCC[C@H]1C(=O)N[C@@H](Cc1ccccc1)C(=O)N[C@H](C(=O)N[C@@H](C)C(=O)N[C@@H](CO)C(=O)N[C@H](C(=O)N[C@@H](C)C(=O)N[C@@H](C)C(=O)N[C@@H](CCC(=O)O)C(=O)N[C@@H](CCSC)C(=O)N[C@@H](CCSC)C(=O)N[C@@H](Cc1c[nH]cn1)C(=O)N[C@@H](Cc1c[nH]cn1)C(=O)N[C@H](C(=O)N[C@@H](Cc1ccc(O)cc1)C(=O)N[C@@H](CS)C(=O)N[C@@H](C)C(=O)N[C@@H](C)C(=O)N[C@@H](CO)C(=O)N[C@@H](CCCCN)C(=O)N[C@@H](CCCNC(=N)N)C(=O)N[C@@H](CS)C(=O)N[C@@H](CCCCN)C(=O)N[C@@H](CC(N)=O)C(=O)O)C(C)C)C(C)C)C(C)C [PeNi7] (H-VIPFVASVAAEMMHHVYCAASKRCKN-OH; N-terminus and C-terminus assumed) | N/O | N/O | Selectivity Index E. coli [3]: > 1
7 | CC[C@H](C)[C@H](N)C(=O)N[C@@H](CO)C(=O)N[C@H](C(=O)N[C@@H](CCCCN)C(=O)N[C@@H](CCC(=O)O)C(=O)N[C@@H](C)C(=O)N[C@@H](CC(C)C)C(=O)N[C@@H](CCC(=O)O)C(=O)N[C@@H](Cc1c[nH]cn1)C(=O)N[C@@H](CO)C(=O)N[C@@H](Cc1ccccc1)C(=O)N[C@@H](Cc1ccccc1)C(=O)N[C@@H](Cc1c[nH]cn1)C(=O)N[C@H](C(=O)N[C@H](C(=O)N1CCC[C@H]1C(=O)N[C@@H](CCCNC(=N)N)C(=O)N[C@@H](CCCCN)C(=O)N[C@@H](Cc1c[nH]c2ccccc12)C(=O)N[C@@H](CS)C(=O)N[C@@H](CCCCN)C(=O)N[C@@H](CCCCN)C(=O)N[C@@H](Cc1c[nH]cn1)C(=O)O)C(C)C)[C@@H](C)O)[C@@H](C)CC [PoSn1] (H-ISIKEALEHSFFHTVPRKWCKKH-OH) | – | – | Selectivity Index E. coli: >2/N/O/N/O; Selectivity Index S. Enteritidis: >2/N/O/N/O; Selectivity Index S. aureus: >2/N/O/N/O
8 | CC[C@H](C)[C@H](NC(=O)[C@H](CO)NC(=O)[C@H](CC(C)C)NC(=O)[C@H](CO)NC(=O)[C@H](CCCCN)NC(=O)[C@H](CC(C)C)NC(=O)[C@H](C)NC(=O)[C@@H](N)[C@@H](C)O)C(=O)N[C@@H](CC(C)C)C(=O)N[C@@H](CCCCN)C(=O)N[C@@H](CCCCN)C(=O)N[C@@H](CC(C)C)C(=O)N[C@@H](C)C(=O)N[C@@H](CCCCN)C(=O)N[C@@H](CC(C)C)C(=O)N[C@@H](CC(N)=O)C(=O)N[C@@H](CCSC)C(=O)O [PoSn2, TALKSLSILKKLAKLNM] (H-TALKSLSILKKLAKLNM-OH; N-terminus and C-terminus assumed) | N/O | N/O | –
9 | CC[C@H](C)[C@H](NC(=O)[C@H](CO)NC(=O)[C@@H]1CCCN1C(=O)[C@H](CC(C)C)NC(=O)[C@@H](NC(=O)[C@H](CCCCN)NC(=O)[C@H](C)NC(=O)[C@H](C)NC(=O)[C@H](CC(C)C)NC(=O)CNC(=O)[C@H](C)NC(=O)[C@@H](NC(=O)[C@@H](NC(=O)[C@@H]1CCCN1C(=O)[C@H](CC(C)C)NC(=O)[C@@H](N)Cc1ccccc1)C(C)C)C(C)C)C(C)C)C(=O)N[C@H](C(=O)N[C@@H](CS)C(=O)N[C@@H](C)C(=O)N[C@H](C(=O)N[C@H](C(=O)N[C@@H](CCCCN)C(=O)N[C@@H](CCCCN)C(=O)N[C@@H](CS)C(=O)O)[C@@H](C)O)C(C)C)[C@@H](C)CC [RaCa15] (H-FLPVVAGLAAKVLPSIICAVTKKC-OH; N-terminus and C-terminus assumed) | 8- 32 | N/O | Selectivity Index E. coli [3]: 4- 16
10 | CC[C@H](C)[C@H](NC(=O)[C@H](CO)NC(=O)[C@@H]1CCCN1C(=O)[C@H](CC(C)C)NC(=O)[C@@H](NC(=O)[C@H](CCCCN)NC(=O)[C@H](C)NC(=O)[C@H](C)NC(=O)[C@H](CC(C)C)NC(=O)CNC(=O)[C@H](C)NC(=O)[C@@H](NC(=O)[C@@H](NC(=O)[C@@H]1CCCN1C(=O)[C@H](CC(C)C)NC(=O)[C@H](Cc1ccccc1)NC(=O)[C@H](CCCNC(=N)N)NC(=O)[C@H](CCC(N)=O)NC(=O)[C@H](CCC(=O)O)NC(=O)[C@@H](N)CCC(=O)O)C(C)C)C(C)C)C(C)C)C(=O)N[C@H](C(=O)N[C@@H](CS)C(=O)N[C@@H](C)C(=O)N[C@H](C(=O)N[C@H](C(=O)N[C@@H](CCCCN)C(=O)N[C@@H](CCCCN)C(=O)N[C@@H](CS)C(=O)O)[C@@H](C)O)C(C)C)[C@@H](C)CC [RaSy2] (H-EEQRFLPVVAGLAAKVLPSIICAVTKKC-OH; N-terminus and C-terminus assumed) | – | N/O | –
